Assay results reported in patent US20090169552A1 (FRED HUTCHINSON CANCER RESEARCH CENTER, published 2009).

Target: T1, ERp5 (endoplasmic reticulum protein 5) on the cell surface (Homo sapiens (Human)) (UniProt Q15084)
T1 sequence: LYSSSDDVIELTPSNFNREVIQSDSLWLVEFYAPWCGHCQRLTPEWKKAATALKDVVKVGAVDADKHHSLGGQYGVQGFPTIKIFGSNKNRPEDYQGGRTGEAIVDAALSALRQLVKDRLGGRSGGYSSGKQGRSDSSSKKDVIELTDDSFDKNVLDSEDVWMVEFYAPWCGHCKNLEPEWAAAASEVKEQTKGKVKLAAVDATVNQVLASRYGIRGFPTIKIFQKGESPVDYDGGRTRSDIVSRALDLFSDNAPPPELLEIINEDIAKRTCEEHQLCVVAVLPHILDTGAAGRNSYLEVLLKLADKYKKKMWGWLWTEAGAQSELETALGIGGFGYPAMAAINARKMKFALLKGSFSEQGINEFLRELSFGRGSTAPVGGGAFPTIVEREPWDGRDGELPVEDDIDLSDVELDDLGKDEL
Test: affinity purification of U266 outer cell membrane proteins on MICA beads, SDS-PAGE, mass spectrometry, immunoblot

binding: binds
B1: MICA conjugated to cyanogen bromide-activated sepharose beads (ligand)
chain: EPHSLRYNLTVLSWDGSVQSGFLTEVHLDGQPFLRCDRQKCRAKPQGQWAEDVLGNKTWDRETRDLTGNGKDLRMTLAHIKDQKEGLHSLQEIRVCEIHEDNSTRSSQHFYYDGELFLSQNLETKEWTMPQSSRAQTLAMNVRNFLKEDAMKTKTHYHAMHADCLQELRRYLKSGVVLRRTVPPMVNVTRSEASEGNITVTCRASGFYPWNITLSWRQDGVSLSHDTQQWGDVLPDGNGTYQTWVATRICQGEEQRFTCYMEHSGNHSTHPVPSGK
modifications: coupled to cyanogen bromide-activated sepharose beads

No constants are given. Whether binding was seen depends on the method and setting. Binding seen in cells or lysates may run through a third protein. Here binding means that the protein was enriched with, or labelled near, the bait; the list need not be complete.
